From US20070213354A1, “Compositions and Methods for the Treatment of Multiple Sclerosis” (AmpliMed Corporation, priority 2006, published 2007) come the findings set out here.

Some results come without the dose or concentration used.

This data set relates to neonatal rat myocytes. In words: Cardiotoxicity, neonatal rat myocyte assay (ATP/protein ratio). The format is cell-based. The conditions noted are these: ratio of the IC50 values for Cardiotox and L1210 sensitive assays.

In the case of `CN(C)CCN1C(=O)c2cccc3cc4ccc(C#N)cc4c(c23)C1=O` [*10-CN], the “Cardiotox:L1210sens” value amounted to 7.00.
Under `CN(C)CCN1C(=O)c2ccc(N(C)C)c3cc4ccccc4c(c23)C1=O` [*6-N(CH3)2] stands 2026.04; under `CN(C)CCOc1ccc2c3c(c4ccccc4cc13)C(=O)N(CCN(C)C)C2=O` [*6-O(CH2)2N(CH3)2], 27195.00.
Regarding `CCOc1ccc2cc3cccc4c3c(c2c1)C(=O)N(CCN(C)C)C4=O` [*10-OC2H5], the “Cardiotox:L1210sens” value was 451.68.
On to `CC(=O)Nc1cccc2c3c4c(cccc4cc12)C(=O)N(CCN(C)C)C3=O` [*8-NHCOCH3], for which the “Cardiotox:L1210sens” value is 25.02.
For the compound `CN(C)CCN1C(=O)c2cccc3cc4c([N+](=O)[O-])cccc4c(c23)C1=O` [*8-NO2], the “Cardiotox:L1210sens” value was 13.00.
Under `Cc1ccc2c3c(c4ccccc4cc13)C(=O)N(CCN(C)C)C2=O` [*6-CH3] stands 141.29; under `Cc1ccc2cc3ccccc3c3c2c1C(=O)N(CCN(C)C)C3=O` [*4-CH3], 25.13; under `CSc1ccc2c3c(c4ccccc4cc13)C(=O)N(CCN(C)C)C2=O` [*6-SCH3], 7500.00.
